Data taken from the supplement of paper PMC10849652.
This is one part of the list.

By UniProt entry, the sequences of proteins in these tests, tags left out. Where a name states a change or a piece, a line headed by the entry shows the natural chain unless it says otherwise.
UniProt Q9H0L4: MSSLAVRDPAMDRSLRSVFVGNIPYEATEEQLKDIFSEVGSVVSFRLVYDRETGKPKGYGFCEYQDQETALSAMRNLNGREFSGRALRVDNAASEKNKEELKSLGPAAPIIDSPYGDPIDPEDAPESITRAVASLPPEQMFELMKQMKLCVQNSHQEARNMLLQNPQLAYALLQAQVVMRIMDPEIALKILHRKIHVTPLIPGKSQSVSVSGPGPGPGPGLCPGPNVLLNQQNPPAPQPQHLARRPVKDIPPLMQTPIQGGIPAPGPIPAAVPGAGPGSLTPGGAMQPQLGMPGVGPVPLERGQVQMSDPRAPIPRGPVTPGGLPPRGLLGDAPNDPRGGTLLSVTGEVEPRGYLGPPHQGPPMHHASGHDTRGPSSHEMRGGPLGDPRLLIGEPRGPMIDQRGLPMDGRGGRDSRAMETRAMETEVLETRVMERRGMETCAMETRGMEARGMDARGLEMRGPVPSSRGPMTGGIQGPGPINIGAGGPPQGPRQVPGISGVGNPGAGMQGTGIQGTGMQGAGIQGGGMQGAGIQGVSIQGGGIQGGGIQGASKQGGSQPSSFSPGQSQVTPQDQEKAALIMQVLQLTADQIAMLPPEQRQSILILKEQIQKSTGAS
UniProt Q13617, whole entry, looked up: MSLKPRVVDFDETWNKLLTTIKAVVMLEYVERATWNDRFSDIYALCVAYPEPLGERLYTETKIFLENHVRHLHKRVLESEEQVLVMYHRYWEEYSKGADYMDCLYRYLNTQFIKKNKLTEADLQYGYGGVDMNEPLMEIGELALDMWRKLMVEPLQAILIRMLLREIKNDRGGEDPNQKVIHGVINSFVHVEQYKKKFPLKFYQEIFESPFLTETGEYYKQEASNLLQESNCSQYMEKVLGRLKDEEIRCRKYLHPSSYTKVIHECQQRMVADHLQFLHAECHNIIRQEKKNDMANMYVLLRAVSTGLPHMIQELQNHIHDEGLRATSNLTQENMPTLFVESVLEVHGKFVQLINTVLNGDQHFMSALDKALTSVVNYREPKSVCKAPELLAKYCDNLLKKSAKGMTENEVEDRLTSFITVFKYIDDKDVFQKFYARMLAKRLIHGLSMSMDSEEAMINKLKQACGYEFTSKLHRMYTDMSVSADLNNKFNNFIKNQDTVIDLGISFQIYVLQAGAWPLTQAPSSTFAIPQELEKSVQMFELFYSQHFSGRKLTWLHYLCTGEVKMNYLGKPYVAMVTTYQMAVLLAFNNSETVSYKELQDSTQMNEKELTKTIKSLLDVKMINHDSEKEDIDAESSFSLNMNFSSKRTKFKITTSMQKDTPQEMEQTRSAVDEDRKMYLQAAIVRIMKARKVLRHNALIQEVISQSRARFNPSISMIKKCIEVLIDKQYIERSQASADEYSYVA
UniProt Q6PI48: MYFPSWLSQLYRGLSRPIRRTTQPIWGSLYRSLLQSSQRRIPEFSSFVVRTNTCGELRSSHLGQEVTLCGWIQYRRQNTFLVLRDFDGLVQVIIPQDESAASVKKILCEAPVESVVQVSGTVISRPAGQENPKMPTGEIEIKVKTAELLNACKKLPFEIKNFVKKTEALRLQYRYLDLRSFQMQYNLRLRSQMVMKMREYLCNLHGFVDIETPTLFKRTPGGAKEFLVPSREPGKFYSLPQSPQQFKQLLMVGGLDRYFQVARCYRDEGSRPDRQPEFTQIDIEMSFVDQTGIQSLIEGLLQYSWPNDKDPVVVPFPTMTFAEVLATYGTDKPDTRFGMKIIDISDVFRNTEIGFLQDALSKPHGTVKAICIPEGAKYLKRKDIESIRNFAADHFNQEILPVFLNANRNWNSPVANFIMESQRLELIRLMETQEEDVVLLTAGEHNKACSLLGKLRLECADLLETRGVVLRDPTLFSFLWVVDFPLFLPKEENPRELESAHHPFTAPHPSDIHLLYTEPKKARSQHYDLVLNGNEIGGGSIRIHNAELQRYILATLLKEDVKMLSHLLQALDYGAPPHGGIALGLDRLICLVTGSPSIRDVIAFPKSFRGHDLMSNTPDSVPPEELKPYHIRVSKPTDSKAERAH
UniProt P08574: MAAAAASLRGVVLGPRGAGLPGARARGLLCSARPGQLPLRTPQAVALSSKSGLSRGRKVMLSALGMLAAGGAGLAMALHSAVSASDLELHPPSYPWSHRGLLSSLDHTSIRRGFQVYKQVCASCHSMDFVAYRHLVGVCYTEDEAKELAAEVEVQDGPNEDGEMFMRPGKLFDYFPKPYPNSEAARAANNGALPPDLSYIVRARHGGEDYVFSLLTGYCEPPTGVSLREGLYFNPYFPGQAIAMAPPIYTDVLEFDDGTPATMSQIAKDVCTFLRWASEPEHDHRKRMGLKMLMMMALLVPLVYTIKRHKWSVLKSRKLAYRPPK
UniProt Q9NWV4: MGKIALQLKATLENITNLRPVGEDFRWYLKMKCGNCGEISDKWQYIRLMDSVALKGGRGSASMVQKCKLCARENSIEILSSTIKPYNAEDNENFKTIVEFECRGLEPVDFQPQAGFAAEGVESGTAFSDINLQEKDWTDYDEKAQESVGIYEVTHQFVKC
UniProt O75935, whole entry, looked up: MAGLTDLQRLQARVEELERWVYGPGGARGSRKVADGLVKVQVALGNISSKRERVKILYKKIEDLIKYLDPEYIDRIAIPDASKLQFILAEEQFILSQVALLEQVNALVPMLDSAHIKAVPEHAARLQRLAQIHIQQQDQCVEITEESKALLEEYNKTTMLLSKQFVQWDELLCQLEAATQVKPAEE
UniProt Q9NTM9: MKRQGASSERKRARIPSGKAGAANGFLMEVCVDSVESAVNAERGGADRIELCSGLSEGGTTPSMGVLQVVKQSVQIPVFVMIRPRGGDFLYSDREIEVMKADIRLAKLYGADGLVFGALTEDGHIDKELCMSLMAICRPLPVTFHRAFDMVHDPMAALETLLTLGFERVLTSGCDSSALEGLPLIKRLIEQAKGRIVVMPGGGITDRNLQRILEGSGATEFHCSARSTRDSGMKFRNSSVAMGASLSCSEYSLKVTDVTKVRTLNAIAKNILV
UniProt P00387: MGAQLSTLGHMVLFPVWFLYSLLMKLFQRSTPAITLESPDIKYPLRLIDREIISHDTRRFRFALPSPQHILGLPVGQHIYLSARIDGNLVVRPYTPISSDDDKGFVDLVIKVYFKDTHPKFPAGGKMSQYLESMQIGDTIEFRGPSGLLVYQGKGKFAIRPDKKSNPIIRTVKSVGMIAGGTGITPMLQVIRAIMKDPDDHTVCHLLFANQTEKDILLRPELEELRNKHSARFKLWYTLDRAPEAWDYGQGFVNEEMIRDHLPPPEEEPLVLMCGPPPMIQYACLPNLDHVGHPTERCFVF
UniProt Q13561, whole entry, looked up: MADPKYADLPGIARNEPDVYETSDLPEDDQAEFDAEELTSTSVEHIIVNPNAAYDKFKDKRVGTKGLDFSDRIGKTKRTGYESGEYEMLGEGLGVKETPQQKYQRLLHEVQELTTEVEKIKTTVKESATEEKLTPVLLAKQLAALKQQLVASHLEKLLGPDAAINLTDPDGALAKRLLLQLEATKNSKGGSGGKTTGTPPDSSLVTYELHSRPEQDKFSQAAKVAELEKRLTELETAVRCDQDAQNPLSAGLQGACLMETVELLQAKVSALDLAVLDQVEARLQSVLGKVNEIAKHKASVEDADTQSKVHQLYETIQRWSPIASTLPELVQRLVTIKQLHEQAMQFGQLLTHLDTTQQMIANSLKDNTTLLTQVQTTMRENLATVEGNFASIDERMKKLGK
UniProt Q9BTE1, whole entry, looked up: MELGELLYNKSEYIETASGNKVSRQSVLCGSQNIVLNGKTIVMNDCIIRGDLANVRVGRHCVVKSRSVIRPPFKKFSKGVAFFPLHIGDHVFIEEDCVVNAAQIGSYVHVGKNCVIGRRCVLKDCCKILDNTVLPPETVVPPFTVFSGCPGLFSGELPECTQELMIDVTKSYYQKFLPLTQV
UniProt Q8NCG7: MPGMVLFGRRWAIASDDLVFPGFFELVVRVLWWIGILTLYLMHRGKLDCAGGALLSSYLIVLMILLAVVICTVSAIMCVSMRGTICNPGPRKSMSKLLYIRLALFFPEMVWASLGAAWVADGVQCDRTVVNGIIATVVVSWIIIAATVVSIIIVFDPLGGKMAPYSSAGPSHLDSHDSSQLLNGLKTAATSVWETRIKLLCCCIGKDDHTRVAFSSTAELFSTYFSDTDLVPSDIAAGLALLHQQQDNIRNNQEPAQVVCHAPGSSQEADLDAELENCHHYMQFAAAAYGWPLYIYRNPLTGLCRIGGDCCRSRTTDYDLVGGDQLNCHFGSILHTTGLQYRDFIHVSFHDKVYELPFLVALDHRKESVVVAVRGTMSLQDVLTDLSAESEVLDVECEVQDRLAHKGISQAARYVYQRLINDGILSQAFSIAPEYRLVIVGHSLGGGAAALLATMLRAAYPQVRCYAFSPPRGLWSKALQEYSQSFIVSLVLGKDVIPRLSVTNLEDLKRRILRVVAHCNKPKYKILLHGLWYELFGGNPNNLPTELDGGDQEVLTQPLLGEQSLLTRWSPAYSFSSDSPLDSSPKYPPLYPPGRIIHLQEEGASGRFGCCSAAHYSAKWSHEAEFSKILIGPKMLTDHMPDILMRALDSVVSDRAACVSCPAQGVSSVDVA
UniProt Q93034, whole entry, looked up: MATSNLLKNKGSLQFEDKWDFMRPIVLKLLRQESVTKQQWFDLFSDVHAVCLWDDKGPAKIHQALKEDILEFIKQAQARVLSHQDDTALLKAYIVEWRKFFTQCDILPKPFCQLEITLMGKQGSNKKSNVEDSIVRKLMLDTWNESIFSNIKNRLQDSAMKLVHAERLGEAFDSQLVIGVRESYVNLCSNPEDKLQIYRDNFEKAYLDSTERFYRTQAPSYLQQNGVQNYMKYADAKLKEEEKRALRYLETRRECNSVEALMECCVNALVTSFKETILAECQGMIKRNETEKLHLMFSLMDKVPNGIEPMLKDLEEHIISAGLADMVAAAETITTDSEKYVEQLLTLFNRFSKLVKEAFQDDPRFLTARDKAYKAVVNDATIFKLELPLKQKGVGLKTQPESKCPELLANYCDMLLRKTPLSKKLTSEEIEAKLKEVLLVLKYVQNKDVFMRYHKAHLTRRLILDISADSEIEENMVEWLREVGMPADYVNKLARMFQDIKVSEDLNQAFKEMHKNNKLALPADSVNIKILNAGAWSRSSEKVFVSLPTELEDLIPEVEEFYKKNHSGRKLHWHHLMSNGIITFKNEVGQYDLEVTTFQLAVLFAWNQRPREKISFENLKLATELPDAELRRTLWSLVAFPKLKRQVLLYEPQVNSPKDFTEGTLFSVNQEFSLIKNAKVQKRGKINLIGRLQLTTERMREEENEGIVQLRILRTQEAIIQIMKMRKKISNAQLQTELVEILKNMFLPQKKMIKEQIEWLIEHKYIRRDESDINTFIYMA
UniProt Q8WUE5: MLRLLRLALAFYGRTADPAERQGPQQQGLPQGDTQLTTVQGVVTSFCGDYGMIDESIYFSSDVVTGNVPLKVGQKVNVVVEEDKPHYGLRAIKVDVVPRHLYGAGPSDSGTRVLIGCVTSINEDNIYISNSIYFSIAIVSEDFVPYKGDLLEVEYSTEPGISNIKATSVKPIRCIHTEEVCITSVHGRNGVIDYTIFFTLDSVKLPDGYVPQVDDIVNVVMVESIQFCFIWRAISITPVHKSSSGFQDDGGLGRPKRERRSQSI
UniProt Q96EP5: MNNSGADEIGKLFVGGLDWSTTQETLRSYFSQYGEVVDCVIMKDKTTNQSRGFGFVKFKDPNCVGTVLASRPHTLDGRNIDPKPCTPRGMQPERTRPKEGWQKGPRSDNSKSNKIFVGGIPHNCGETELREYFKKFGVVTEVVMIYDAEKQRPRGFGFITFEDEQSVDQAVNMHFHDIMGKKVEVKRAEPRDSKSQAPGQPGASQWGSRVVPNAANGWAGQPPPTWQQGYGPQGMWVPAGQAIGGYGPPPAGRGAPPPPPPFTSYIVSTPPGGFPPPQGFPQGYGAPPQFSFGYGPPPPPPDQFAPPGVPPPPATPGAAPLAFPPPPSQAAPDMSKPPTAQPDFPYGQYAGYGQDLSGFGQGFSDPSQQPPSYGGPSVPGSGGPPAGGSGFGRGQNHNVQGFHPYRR
UniProt P27707: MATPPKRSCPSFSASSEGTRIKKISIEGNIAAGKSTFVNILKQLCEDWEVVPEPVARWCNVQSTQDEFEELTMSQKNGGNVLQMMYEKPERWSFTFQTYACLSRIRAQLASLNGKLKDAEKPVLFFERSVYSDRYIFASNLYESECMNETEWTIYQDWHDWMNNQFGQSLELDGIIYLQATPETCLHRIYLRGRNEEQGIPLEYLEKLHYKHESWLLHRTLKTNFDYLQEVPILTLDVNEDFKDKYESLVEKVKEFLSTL

What was measured:
Test in all cases: log2 fold change, soluble protein after heating vs DMSO (PISA); higher = thermal stabilisation; K562 cells, 10 uM, 30 min; active = over 0.2 and 3.5 SD of the protein, either way, in both replicates (recomputed)
saracatinib = compound: CN1CCN(CCOc2cc(OC3CCOCC3)c3c(Nc4c(Cl)ccc5c4OCO5)ncnc3c2)CC1 [saracatinib]
Outline: (§1)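 K562 cells at 2×10^6 cells/mL were treated for 30 min with 10 μM compound, and aliquots were heated for 3 min over 48°C-58°C before pooling. Extraction used PBS with 0.5% NP-40 at 4°C, and soluble protein was the supernatant after 21,000xg for 90 min, measured by TMTpro 16plex LC-MS/MS with channel sums equalised. Thermal stability values, relative to control samples and from duplicates, are log2 fold changes.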

sotrastaurin = compound: CN1CCN(c2nc(C3=C(c4c[nH]c5ccccc45)C(=O)NC3=O)c3ccccc3n2)CC1 [sotrastaurin]
Outline: as §1

alvocidib = compound: CN1CC[C@H](c2c(O)cc(O)c3c(=O)cc(-c4ccccc4Cl)oc23)[C@H](O)C1 [alvocidib]
Outline: as §1

Tubastatin A = compound: CN1CCc2c(c3ccccc3n2Cc2ccc(C(=O)NO)cc2)C1 [Tubastatin A]
Outline: as §1

[1] = compound: CNC(=O)C1=CC=CC=C1NC2=NC(=NC=C2Cl)NC3=C(C=C(C=C3)N4CCOCC4)OC
Outline: as §1

defactinib = compound: CNC(=O)c1ccc(Nc2ncc(C(F)(F)F)c(NCc3nccnc3N(C)S(C)(=O)=O)n2)cc1 [defactinib]
Outline: as §1

rucaparib = compound: CNCc1ccc(-c2[nH]c3cc(F)cc4c3c2CCNC4=O)cc1 [rucaparib]
Outline: as §1

[2] = compound: CNc1nc(-c2ccc3c(N)n[nH]c3c2)cc(N2C[C@@H](C(=O)NC3CCCCC3)CC[C@H]2C)n1
Outline: as §1

encorafenib = compound: COC(=O)N[C@@H](C)CNc1nccc(-c2cn(C(C)C)nc2-c2cc(Cl)cc(NS(C)(=O)=O)c2F)n1 [encorafenib]
Outline: as §1

[3] = compound: COC(=O)[C@H](CCSC)NC(=O)C1=C(C=C(C=C1)NC[C@H](CS)N)C2=CC=CC=C2
Outline: as §1

[4] = compound: COC1=CC=C(C=C1)CN2C=CC3=C2C=C(C=C3)C(=O)NO
Outline: as §1

filanesib = compound: CON(C)C(=O)N1N=C(c2cc(F)ccc2F)S[C@@]1(CCCN)c1ccccc1 [filanesib]
Outline: as §1

zotarolimus = compound: CO[C@H]1C[C@@H]2CC[C@@H](C)[C@@](O)(O2)C(=O)C(=O)N2CCCC[C@H]2C(=O)O[C@H]([C@H](C)C[C@@H]2CC[C@H](n3cnnn3)[C@H](OC)C2)CC(=O)[C@H](C)/C=C(\C)[C@@H](O)[C@@H](OC)C(=O)[C@H](C)C[C@H](C)/C=C/C=C/C=C/1C [zotarolimus]
Outline: as §1

idasanutlin = compound: COc1cc(C(=O)O)ccc1NC(=O)[C@@H]1N[C@@H](CC(C)(C)C)[C@](C#N)(c2ccc(Cl)cc2F)[C@H]1c1cccc(Cl)c1F [idasanutlin]
Outline: as §1

alisertib = compound: COc1cc(Nc2ncc3c(n2)-c2ccc(Cl)cc2C(c2c(F)cccc2OC)=NC3)ccc1C(=O)O [alisertib]
Outline: as §1

[5] = compound: COc1cc2nc(-c3cc(F)ccc3O)nc(N[C@@H]3CNC[C@H]3C(C)(C)O)c2cc1OC
Outline: as §1

gefitinib = compound: COc1cc2ncnc(Nc3ccc(F)c(Cl)c3)c2cc1OCCCN1CCOCC1 [gefitinib]
Outline: as §1

[6] = compound: COc1cccc2cc(-c3nc([C@H]4CC[C@H](C(=O)O)CC4)n4ncnc(N)c34)[nH]c12
Outline: as §1

lapatinib = compound: CS(=O)(=O)CCNCc1ccc(-c2ccc3ncnc(Nc4ccc(OCc5cccc(F)c5)c(Cl)c4)c3c2)o1 [lapatinib]
Outline: as §1

pictilisib = compound: CS(=O)(=O)N1CCN(Cc2cc3nc(-c4cccc5[nH]ncc45)nc(N4CCOCC4)c3s2)CC1 [pictilisib]
Outline: as §1

Measured: log2 fold change

CSTF2T (UniProt Q9H0L4)
inactive: saracatinib -0.005 | sotrastaurin 0.014 | alvocidib 0.058 | Tubastatin A -0.018 | [1] 0.011 | defactinib 0.09 | rucaparib 0.012 | [2] -0.028 | encorafenib -0.08 | [3] -0.019 | [4] -0.009 | filanesib -0.003 | zotarolimus -0.01 | idasanutlin 0 | alisertib -0.036 | [5] 0.08 | gefitinib -0.018 | [6] -0.001 | lapatinib -0.059 | pictilisib 0.014

CUL2 isoform 2 (UniProt Q13617)
inactive: saracatinib -0.016 | sotrastaurin -0.009 | alvocidib -0.097 | Tubastatin A -0.009 | [1] -0.008 | defactinib -0.019 | rucaparib -0.011 | [2] -0.022 | encorafenib 0 | [3] -0.01 | [4] 0.087 | filanesib -0.091 | zotarolimus 0.032 | idasanutlin -0.085 | alisertib -0.02 | [5] 0.032 | gefitinib 0.01 | [6] 0.036 | lapatinib -0.008 | pictilisib 0.016

DARS2 (UniProt Q6PI48)
inactive: saracatinib 0.04 | sotrastaurin 0.021 | alvocidib 0.059 | Tubastatin A -0.022 | [1] 0.096 | defactinib 0.005 | rucaparib -0.017 | [2] -0.067 | encorafenib 0.018 | [3] -0.013 | [4] 0.031 | filanesib -0.023 | zotarolimus -0.022 | idasanutlin -0.021 | alisertib -0.068 | [5] -0.082 | gefitinib 0.004 | [6] 0.023 | lapatinib 0.031 | pictilisib -0.015

CYC1 (UniProt P08574)
inactive: saracatinib 0 | sotrastaurin 0.015 | alvocidib -0.021 | Tubastatin A -0.022 | [1] -0.012 | defactinib -0.016 | rucaparib -0.032 | [2] -0.009 | encorafenib 0.003 | [3] 0.024 | [4] -0.037 | filanesib -0.03 | zotarolimus -0.001 | idasanutlin -0.015 | alisertib -0.038 | [5] 0.013 | gefitinib -0.056 | [6] 0.009 | lapatinib -0.061 | pictilisib 0.08

CZIB (UniProt Q9NWV4)
inactive: saracatinib 0.03 | sotrastaurin 0.036 | alvocidib -0.056 | Tubastatin A -0.05 | [1] 0.025 | defactinib -0.038 | rucaparib -0.025 | [2] -0.017 | encorafenib -0.007 | [3] 0.045 | [4] -0.048 | filanesib -0.001 | zotarolimus 0 | idasanutlin -0.02 | alisertib -0.086 | [5] -0.018 | gefitinib -0.005 | [6] 0 | lapatinib -0.003 | pictilisib 0.072

2 successive entries already listed:
DARS2 (UniProt Q6PI48)
inactive: saracatinib 0.04 | sotrastaurin 0.021 | alvocidib 0.059 | Tubastatin A -0.022 | [1] 0.096 | defactinib 0.005 | rucaparib -0.017 | [2] -0.067 | encorafenib 0.018 | [3] -0.013 | [4] 0.031 | filanesib -0.023 | zotarolimus -0.022 | idasanutlin -0.021 | alisertib -0.068 | [5] -0.082 | gefitinib 0.004 | [6] 0.023 | lapatinib 0.031 | pictilisib -0.015

CYC1 (UniProt P08574)
inactive: saracatinib 0 | sotrastaurin 0.015 | alvocidib -0.021 | Tubastatin A -0.022 | [1] -0.012 | defactinib -0.016 | rucaparib -0.032 | [2] -0.009 | encorafenib 0.003 | [3] 0.024 | [4] -0.037 | filanesib -0.03 | zotarolimus -0.001 | idasanutlin -0.015 | alisertib -0.038 | [5] 0.013 | gefitinib -0.056 | [6] 0.009 | lapatinib -0.061 | pictilisib 0.08

(cont.)

DCTN3 (UniProt O75935)
inactive: saracatinib -0.029 | sotrastaurin -0.015 | alvocidib -0.084 | Tubastatin A 0.04 | [1] 0.098 | defactinib -0.028 | rucaparib 0.049 | [2] 0.001 | encorafenib 0.053 | [3] -0.027 | [4] 0.053 | filanesib -0.006 | zotarolimus 0.008 | idasanutlin -0.037 | alisertib 0.032 | [5] 0.046 | gefitinib -0.004 | [6] -0.017 | lapatinib 0.012 | pictilisib 0.065

CUTC (UniProt Q9NTM9)
inactive: saracatinib 0.017 | sotrastaurin -0.032 | alvocidib -0.038 | Tubastatin A -0.011 | [1] -0.011 | defactinib 0.003 | rucaparib -0.03 | [2] -0.011 | encorafenib -0.005 | [3] 0.032 | [4] 0.037 | filanesib -0.022 | zotarolimus -0.043 | idasanutlin 0.081 | alisertib 0.025 | [5] 0.027 | gefitinib 0.035 | [6] 0.076 | lapatinib -0.071 | pictilisib 0.081

CYB5R3 isoform 3 (UniProt P00387)
inactive: saracatinib 0.005 | sotrastaurin 0.052 | alvocidib -0.004 | Tubastatin A -0.011 | [1] 0.122 | defactinib 0.015 | rucaparib -0.037 | [2] -0.015 | encorafenib -0.026 | [3] 0.028 | [4] -0.037 | filanesib -0.032 | zotarolimus -0.036 | idasanutlin -0.058 | alisertib -0.021 | [5] 0.042 | gefitinib 0.011 | [6] 0.05 | lapatinib -0.048 | pictilisib 0.04

DCTN2 isoform 2 (UniProt Q13561)
inactive: saracatinib 0.008 | sotrastaurin -0.066 | alvocidib -0.032 | Tubastatin A 0.005 | [1] 0.056 | defactinib -0.076 | rucaparib 0.016 | [2] 0.022 | encorafenib 0.034 | [3] -0.034 | [4] 0.025 | filanesib -0.022 | zotarolimus 0.087 | idasanutlin -0.025 | alisertib -0.028 | [5] 0.043 | gefitinib 0.012 | [6] -0.046 | lapatinib 0.016 | pictilisib 0.017

DCTN5 (UniProt Q9BTE1)
inactive: saracatinib 0.015 | sotrastaurin -0.008 | alvocidib 0.035 | Tubastatin A 0.018 | [1] -0.006 | defactinib 0.034 | rucaparib 0.031 | [2] -0.035 | encorafenib -0.115 | [3] 0.017 | [4] -0.098 | filanesib 0 | zotarolimus 0.032 | idasanutlin 0.008 | alisertib -0.018 | [5] 0.002 | gefitinib -0.012 | [6] 0.038 | lapatinib 0.003 | pictilisib 0.008

DAGLB (UniProt Q8NCG7)
inactive: saracatinib -0.028 | sotrastaurin 0.026 | alvocidib -0.07 | Tubastatin A 0.072 | [1] 0.019 | defactinib -0.041 | rucaparib 0.01 | [2] -0.046 | encorafenib -0.019 | [3] 0.02 | [4] -0.06 | filanesib -0.023 | zotarolimus -0.013 | idasanutlin -0.056 | alisertib 0.007 | [5] 0.045 | gefitinib 0.025 | [6] 0.081 | lapatinib -0.03 | pictilisib 0.033

CUL5 (UniProt Q93034)
inactive: saracatinib 0.04 | sotrastaurin 0.025 | alvocidib -0.029 | Tubastatin A -0.033 | [1] -0.02 | defactinib -0.028 | rucaparib -0.044 | [2] -0.035 | encorafenib -0.003 | [3] -0.011 | [4] -0.014 | filanesib -0.069 | zotarolimus -0.014 | idasanutlin -0.069 | alisertib -0.021 | [5] 0.024 | gefitinib 0.01 | [6] 0.056 | lapatinib -0.01 | pictilisib 0.043

CT55 (UniProt Q8WUE5)
inactive: saracatinib -0.08 | sotrastaurin -0.041 | alvocidib -0.051 | Tubastatin A 0.017 | [1] -0.02 | defactinib -0.073 | rucaparib -0.01 | [2] 0.003 | encorafenib 0.032 | [3] 0.02 | [4] -0.061 | filanesib 0.013 | zotarolimus 0.026 | idasanutlin -0.012 | alisertib 0 | [5] 0.013 | gefitinib 0.065 | [6] 0.044 | lapatinib 0.017 | pictilisib 0.008

DAZAP1 (UniProt Q96EP5)
inactive: saracatinib 0.049 | sotrastaurin 0.061 | alvocidib 0.116 | Tubastatin A -0.048 | [1] 0.131 | defactinib 0.093 | rucaparib 0.105 | [2] -0.118 | encorafenib -0.058 | [3] 0.012 | [4] 0.038 | filanesib 0.053 | zotarolimus -0.038 | idasanutlin -0.011 | alisertib -0.203 | [5] 0.081 | gefitinib -0.029 | [6] -0.011 | lapatinib 0.019 | pictilisib -0.107

DCK (UniProt P27707)
inactive: saracatinib -0.05 | sotrastaurin 0.083 | alvocidib 0.004 | Tubastatin A -0.02 | [1] -0.08 | defactinib -0.048 | rucaparib 0.042 | [2] -0.002 | encorafenib -0.055 | [3] 0.029 | [4] 0.156 | filanesib 0.004 | zotarolimus 0 | idasanutlin -0.006 | alisertib -0.026 | [5] -0.023 | gefitinib -0.056 | [6] 0.047 | lapatinib 0.01 | pictilisib 0.142

CYB5B, A0A499FJ32
inactive: saracatinib -0.015 | sotrastaurin 0.027 | alvocidib 0.04 | Tubastatin A 0.015 | [1] 0.005 | defactinib -0.004 | rucaparib -0.258 | [2] 0.004 | encorafenib 0.046 | [3] -0.076 | [4] -0.1 | filanesib -0.051 | zotarolimus -0.084 | idasanutlin -0.051 | alisertib -0.047 | [5] 0.161 | gefitinib -0.058 | [6] 0.063 | lapatinib -0.056 | pictilisib 0.164
